This test deals with T1, Cap32, beta-subunit of capping protein Cap32/34 from Dictyostelium discoideum (Dictyostelium discoideum) (UniProt P13021).
T1 sequence: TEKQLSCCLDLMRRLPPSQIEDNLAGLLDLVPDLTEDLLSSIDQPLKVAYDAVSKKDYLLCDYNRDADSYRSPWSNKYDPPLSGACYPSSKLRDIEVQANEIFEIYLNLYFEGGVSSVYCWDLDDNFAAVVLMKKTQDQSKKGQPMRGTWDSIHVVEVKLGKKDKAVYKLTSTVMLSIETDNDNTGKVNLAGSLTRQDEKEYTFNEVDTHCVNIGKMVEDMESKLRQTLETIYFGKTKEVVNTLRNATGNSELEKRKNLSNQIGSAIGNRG
The experiment in a line: crystal structure; co-expressed and co-purified Cap32/34 heterodimer; hanging-drop vapour diffusion, 100 mM Hepes pH 7.5, 17% (w/v) PEG 8000, 20°C; refined to 2.2 Å, space group P4(1), two molecules in the asymmetric unit; both purified.

The values below come from paper PMC3472329.

No constants are given. Whether binding was seen depends on the method and setting. Some results given as binding are weak or reduced against the parent protein; the word gives no strength.

B1: Cap34, alpha-subunit of capping protein Cap32/34 from Dictyostelium discoideum (protein, UniProt P13022 1-281)
chain: MASNQELVQIATNFLLNAPPCEFMEVVSDVRALLPSESLLNASAGSTFREYNTSQMVSVQTSKGSALITKEGEISNNEYLDPKNKQVITYDHIKQEVTGERSASGEIEQDIEQYRAAFDEEATKYCNEYYPNGVSAVYGTKVSEGIKITVCISTCIYKPNAFYSGRWRSVWTCTFKPGSGNVTSNGKVQVNVHYFEDGNVQLNTVTQKQTTSPSADAQSTAVNAFKAIGKAELNLHTALDNNYSTMGDTTFKALRRALPINRTKINWQKVKNFKIANELNK
B1: the binding result is on record as “binds”.
